Source: PubChem BioAssay AID493014 (National Center for Advancing Translational Sciences (NCATS), 2011)
Hit rate of the full screen: of about 340,000 compounds, about 170 (0.05%) were called active. The shares of active, inactive and inconclusive entries below differ from those in the screen. Calls follow the shape of the dose curve; as a rule, active = well fitted inhibition curve with a large enough effect in the signal ratio, with a control signal flat (not every such curve was filed as active); inconclusive = small, poorly fitted or top-dose-only effect, or effect the other way, or a change in a side signal; inactive = flat fitted curve, though single readings scatter; the % refers to the signal ratio. Potencies beside an inconclusive call are fits to weak or partial responses and may not hold up.

assay: qHTS Assay to Find Inhibitors of Chronic Active B-Cell Receptor Signaling; conditions: ABC-DLBCL IkBa-CBG/CBR reporter, luminescence ratio (green luciferase fused to IkBa over red control in TMD8 lymphoma cells), 4 h; activity change, negative = inhibition: at 46.1 µM (top of the series);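 as to activity change, negative = inhibition: plate controls were basal doxycycline-induced cells for no effect and cells given 10 µM MG132 for full effect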
In short: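 Doxycycline induced both beetle luciferases in TMD8 lymphoma cells; IKK-driven degradation limits the IkappaBalpha-fused green signal, while red luminescence normalises for cell number and nonspecific effects. Compounds tested up to 46 uM, 4 hrs.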
Potency is read from the fitted curve at half-maximal effect.

Row | Compound | activity change, negative = inhibition | Potency
1 | COc1cccc(-c2nc(NC3CCCC3)c3ccccc3n2)c1O | inconclusive: 8.38% | 
2 | CN1CCN(c2ccc(-c3cc(O)c4ncccc4c3)cc2)CC1 | inconclusive: 26.9% | 
3 | Cc1ccc(CNC(=O)CN2C(=O)CSc3ccc(S(=O)(=O)N4CCC(C)CC4)cc32)cc1 | inconclusive: 9.57% | 
4 | CS(=O)(=O)c1ccc(Cl)c(NC(=O)COC(=O)CCN=C2NS(=O)(=O)c3ccccc32)c1 | inconclusive: 5.38% | 
5 | CCn1ncc(/C=C2/SC(=S)NC2=O)c1C | inconclusive: 6.73% | 
6 | Cc1nn(-c2ccccc2)cc1/C=N/O | inactive | 
7 | Cc1cc[n+](C2=C([O-])c3ccccc3C(=O)/C2=N\S(=O)(=O)c2cccs2)cc1C | inconclusive: -0.608% | 
8 | CN(C)c1ccc(NC2=C(Cl)C(=O)c3ccccc3C2=O)cc1 |  | inconclusive: 23.1 µM [rising, partial curve, poor fit]
9 | COc1ccc(OC)c(NC(=O)CN(C)S(=O)(=O)c2ccc(Cl)cc2)c1 |  | inconclusive: 11.2 µM [falling, partial curve, poor fit]
10 | C=C(C)c1cccc(C(C)(C)NC(=O)NNC(=O)c2ccccc2O)c1 | inconclusive: 0.0365% | 
11 | Nc1nc(SCCO)[nH]c(=O)c1NC(=O)c1ccc(Br)o1 | inconclusive: 0.0534% | 
12 | CCOC(=O)C1CCCN(C(=O)c2cc(Nc3ccc(OC)c(OC)c3)nc3ccccc23)C1 (centres undefined) | inconclusive: -0.639% | 
13 | Cc1cc(C)nc(N2CCCC(C(=O)NCCc3cccc(F)c3)C2)n1 (centres undefined) | inconclusive: -3.57% | 
14 | Cc1ccc2nc(-c3ccccn3)cc(C(=O)NC3CCN(C)CC3)c2c1 | inconclusive: 2.03% | 
15 | CCCn1c2ccccc2c2cnn(CC(=O)N3CCN(c4ccccc4)CC3)c(=O)c21 | inconclusive: 14.7% | 
16 | COc1ccccc1Nc1ccc(Nc2ccccc2OC)nn1 |  | inconclusive: 5.17 µM [falling, partial curve]
17 | COc1ccc(-c2[nH]c(-c3ccccc3)nc2SCC(=O)Nc2nccs2)cc1 | inconclusive: -13.7% | 
18 | CCOc1cc(C2c3c(n[nH]c3C)C(=O)N2c2ccc(Br)cc2)ccc1O (centres undefined) | inconclusive: -17.7% | 
19 | COc1cc(NC(=O)c2cc([N+](=O)[O-])ccc2NC(=O)CN2CCN(c3ccccn3)CC2)cc(OC)c1 |  | inconclusive: 3.55 µM [falling, partial curve, poor fit]
20 | Cc1ccccc1C(=O)N1CCC(C(=O)Nc2ccc(S(=O)(=O)N3CCCCC3)cc2)CC1 | inconclusive: -9.71% | 
21 | Cc1cccc(OCC(=O)Nc2cccc(-c3nnc(-c4ccccc4)o3)c2)c1C | inconclusive: 0.713% | 
22 | C/C(=N\NC(=O)c1nnn(-c2nonc2N)c1CSc1ccc(C)cc1)c1ccco1 | inactive | 
23 | C=CCN(CC=C)CCOc1ccc(OC(C)C)cc1 | inconclusive: 5.68% | 
24 | COc1cc(/C=C2/C(=O)NN(c3cccc(C)c3)C2=O)ccc1OC(=O)c1ccco1 | inactive | 
25 | C/C(=C\C(=S)Nc1ccccc1)Nc1ccc2ccccc2c1 | inconclusive: -13.7% | 
26 | CCOC(=O)c1c(N)nn(C(C)=O)c1-c1ccccc1 | inconclusive: -28.8% | 
27 | CCOC(=O)/C=C/C(=O)Nc1ccccc1-c1ccccc1NC(=O)/C=C/C(=O)OCC | inconclusive: -0.691% | 

Row | Compound | activity change, negative = inhibition | Potency
28 | Cc1ccc(N/C=C/C(=O)c2cccs2)cc1 |  | inconclusive: 28.2 µM [falling, single point]
29 | CN(CC(=O)Nc1ccccc1Br)C(=O)c1ccccc1-c1nc2ccccc2s1 | inconclusive: 6.63% | 
30 | COc1cccc(Nc2nc(N)c([N+](=O)[O-])c(NCc3ccccc3)n2)c1 |  | inconclusive: 35.5 µM [falling, single point]
31 | CC(C(=O)NC(=O)NC1CCCCC1)N1CCN(c2ccc(O)cc2)CC1 (centres undefined) | inconclusive: -4.67% | 
32 | Cc1cc(C)nc(SCC(=O)N/N=C/c2cccn2-c2ccc(O)cc2)n1 |  | inconclusive: 4.11 µM [rising, partial curve]
33 | Cc1ccccc1/C=N/Nc1nc2ccccc2c(=O)n1O |  | inconclusive: 20 µM [falling, partial curve]
34 | Clc1ccc(-c2cn3cc(Br)ccc3n2)cc1Cl |  | inconclusive: 10.3 µM [falling, partial curve]
35 | C=CCN1C(=O)/C(=C/c2ccc(-c3ccc(F)cc3)o2)SC1=S | inactive | 
36 | O=C(NCCc1ccccc1)C(=O)NCC1OCCCN1S(=O)(=O)c1cccs1 (centres undefined) | inconclusive: 5.17% | 
37 | CN(C)C(=O)N1CCC(C(=O)NCc2ccccc2)CC1 | inconclusive: -3.18% | 
38 | CC(=O)n1cc(-c2ccncc2)c2ccccc21 |  | inconclusive: 5.8 µM [falling, partial curve, poor fit]
39 | COc1cc(/C=N/NC(=O)c2cccc(NC(=O)c3ccccc3C)c2)ccc1O |  | inconclusive: 22.4 µM [falling, partial curve, poor fit]
40 | CC(C)CCNCC(=O)NC(c1ccccc1)c1ccccc1 | inactive | 
41 | O=C(Nc1ccc(Cl)cn1)c1ccc2c(c1)OCCO2 |  | inconclusive: 22.4 µM [falling, partial curve]
42 | Cc1ccc(C)c2[nH]c(=O)c(C(c3nnnn3Cc3ccco3)N3CCc4ccccc4C3)cc12 (centres undefined) | inconclusive: 2.08% | 
43 | O=C(C1=C[C@@H](c2ccc(C(F)(F)F)cc2)C[C@@H](OCCCCO)O1)N1CCN(Cc2ccccc2)CC1 | inconclusive: -7.4% | 
44 | CCNC(=S)N/N=C/c1ccc(F)cc1 |  | inconclusive: 22.4 µM [falling, partial curve, poor fit]
45 | O=C(Nc1nc(-c2ccccn2)cs1)c1ccc([N+](=O)[O-])o1 | inconclusive: 13.3% | 
46 | CCCn1nc(NS(=O)(=O)c2cccc3nonc23)c2cc3cc(C)ccc3nc21 | inactive | 
47 | O=C(Nc1ccccc1F)C1CCN(C(=O)Cc2ccccc2)CC1 | inconclusive: 2.15% | 
48 | O=C(CNC(=O)c1cccs1)c1ccc(Br)cc1 |  | inconclusive: 35.5 µM [rising, single point]
49 | COc1ccc(Cl)cc1C(=O)Nc1cccc(-c2ccc3nncn3n2)c1 |  | inconclusive: 6.31 µM [falling, single point]
50 | COc1ccccc1N(CC(=O)Nc1ccc(Br)cc1F)S(=O)(=O)c1cccs1 | inconclusive: -17.6% | 
51 | CS(=O)(=O)Nc1ccc(S(=O)(=O)NC2CCCCC2)cc1 | inconclusive: 15% | 
52 | Cc1ccc(C)c(SCC(=O)Nc2nnc(-c3ccccc3)o2)c1 | inconclusive: 10.5% | 
53 | COc1cc(CC(=O)Nc2ccc3c(c2)CCC3)cc(OC)c1OC | inactive | 
54 | N#Cc1c(-c2ccccc2)nc(SCc2ccc(Cl)cc2)[nH]c1=O | inactive | 

Given with each value named: 4 of the compounds above
Cc1cc(C)nc(SCC(=O)N/N=C/c2cccn2-c2ccc(O)cc2)n1
  Potency: inconclusive: 4.11 µM [rising, partial curve]
Clc1ccc(-c2cn3cc(Br)ccc3n2)cc1Cl
  Potency: inconclusive: 10.3 µM [falling, partial curve]
Cc1ccc(C)c2[nH]c(=O)c(C(c3nnnn3Cc3ccco3)N3CCc4ccccc4C3)cc12 (centres undefined)
  activity change, negative = inhibition: inconclusive: 2.08%
N#Cc1c(-c2ccccc2)nc(SCc2ccc(Cl)cc2)[nH]c1=O
  activity change, negative = inhibition: inactive

More results follow.

Row | Compound | activity change, negative = inhibition | Potency
55 | O=C(CCc1nc2ccccc2c(=O)[nH]1)NCc1cccc(Cl)c1 |  | inconclusive: 16.4 µM [falling, single point]
56 | Cc1ccc(/C=C2\SC(=S)N(c3c(C)n(C)n(-c4ccccc4)c3=O)C2=O)cc1 |  | inconclusive: 15.8 µM [falling, partial curve, poor fit]
57 | COC(=O)c1cc(NC(=O)Cc2cc(OC)c(OC)c(OC)c2)cc(C(=O)OC)c1 | inconclusive: -1.47% | 
58 | CCn1nc(C(=O)Nc2ccc(C)c(C)c2)c(Cl)c1Cl | inconclusive: 18.2% | 
59 | CCN(CC)CCCN=Cc1c(O)n(Cc2ccccc2)c(=O)c2ccccc12 | inconclusive: -7.61% | 
60 | O=C(c1cc2sccc2n1Cc1ccc(F)cc1)N1CCN(c2nc3ccccc3s2)CC1 | inconclusive: 15.4% | 
61 | Cn1nnnc1SCC(=O)Nc1ccc(Oc2ccccc2)cc1 |  | inconclusive: 20.6 µM [falling, partial curve]
62 | CCCCCc1cc(=O)oc2c(C(CCN3CCCCC3)c3ccc4c(c3)OCO4)c(OC)cc(OC)c12 (centres undefined) | inactive | 
63 | C=CCn1c(SCc2ccc(F)cc2)nc2c1c(=O)[nH]c(=O)n2C | inactive | 
64 | CCN1CCN(c2c(Cl)cccc2NC(=O)c2ccc(Br)o2)CC1 | inconclusive: 4.96% | 
65 | COc1ccc(C(=O)Nc2cnn(Cc3c(F)cccc3Cl)c2)cc1OC | inconclusive: 0.294% | 
66 | COc1cccc(N=Nc2c(=O)[nH]n3c(=O)c4c([nH]c23)CCC4)c1 | inconclusive: -15.1% | 
67 | COC(=O)C1=C(C(=O)c2ccccc2)C(c2ccccc2)n2nnnc2N1 (centres undefined) | inconclusive: -3.43% | 
68 | N#Cc1cnn(-c2ccccc2)c1NC(=O)CN1CCN(c2ccccc2)CC1 | inactive | 
69 | COc1ccc(S(=O)(=O)Nc2ccccn2)cc1C |  | inconclusive: 0.794 µM [rising, partial curve, poor fit]
70 | Cn1c(=O)cc(SCC(=O)N2CCCC2)c2ccc(Cl)cc21 | inconclusive: -2.82% | 
71 | O=C(NNC(=O)c1cccc(-n2cccc2)c1)c1ccccc1 | inconclusive: -0.32% | 
72 | CCC(C(=O)O/N=C(\N)c1ccccc1)c1ccccc1 (centres undefined) | inconclusive: 16.4% | 
73 | COc1ccc(-n2c(=S)[nH]c3cc(C(=O)NCc4ccccc4)ccc3c2=O)c(OC)c1 | inactive | 
74 | O=C(NCCn1ccc2ccccc21)c1ccc2c(c1)OCO2 |  | inconclusive: 25.9 µM [falling, partial curve, poor fit]
75 | CS(=O)(=O)c1ccc(C(=O)OCc2nnc(-c3ccc(Cl)cc3)o2)cc1[N+](=O)[O-] | inconclusive: 27.2% | 
76 | Cc1nc2ccc(Br)cc2c(-c2ccccc2)c1C(=O)O | inconclusive: -0.409% | 
77 | O=C(CNC(=O)c1ccco1)NCC(=O)OCc1cccc(C(=O)Oc2ccccc2)c1 | inconclusive: 7.69% | 
78 | Cc1ccccc1NC(=O)C1C2CCCC1C2c1ccccc1 (centres undefined) | inactive | 
79 | CC1CC(NC(=O)C2(C)CC2(Cl)Cl)CC(C)(C)C1 (centres undefined) |  | inconclusive: 32.6 µM [falling, single point]
